Results from the supplement of paper PMC9015667.
Counter-ions that a name gives are not always drawn. The list shows a part of the results. Many values rest on one well or one pass, so single values are uncertain.

system: M238R (matched melanoma line resistant to BRAF inhibitors); test: reduction in cell viability relative to untreated/vehicle; higher = more growth inhibition; conditions: 200 nM; 72 h

Question: Which “reduction in cell viability” value does the source give for `NS(=O)(=O)OC[C@@H]1C[C@@H](n2ccc3c(N[C@H]4CCc5ccccc54)ncnc32)C[C@@H]1O` here?
Answer: 19.6%

Question: `OC(CCN1CCCCC1)(c1ccccc1)C1CC2C=CC1C2` (stereo not given) [Biperiden] was tested. Which “reduction in cell viability” value did it give?
Answer: < 0%

Question: With `OC[C@H]1O[C@@H](n2cnc3c2N=CNC[C@H]3O)C[C@@H]1O` [Pentostatin] as the compound, how does the “reduction in cell viability” value read?
Answer: < 0%

Question: `CC1(C)O[C@@H]2C[C@H]3[C@@H]4C[C@H](F)C5=CC(=O)C=C[C@]5(C)[C@H]4[C@@H](O)C[C@]3(C)[C@]2(C(=O)CO)O1` [Flunisolide] was tested. Which “reduction in cell viability” value did it give?
Answer: < 0%

Question: For `COc1cc2ncnc(Nc3ccc(F)c(Cl)c3)c2cc1NC(=O)/C=C/CN1CCCCC1` [Dacomitinib], which “reduction in cell viability” value is on record?
Answer: < 0%

Question: Which “reduction in cell viability” value does the source give for `COc1ccc(F)c(F)c1C(=O)c1cnc(NC2CCN(S(C)(=O)=O)CC2)nc1N` here?
Answer: < 0%

Question: `CC(C)C[C@@H](N)[C@H](O)C(=O)N[C@H](C(=O)N[C@H](C(=O)N[C@@H](CC(=O)O)C(=O)O)C(C)C)C(C)C` [Amastatin] was tested. Which “reduction in cell viability” value did it give?
Answer: < 0%

Question: With `Nc1cc(C(F)(F)F)c(-c2cc(N3CCOCC3)nc(N3CCOCC3)n2)cn1` [BKM120 (NVP-BKM120, Buparlisib)] as the compound, how does the “reduction in cell viability” value read?
Answer: < 0%

Question: For `C[C@H](CCC(=O)O)[C@H]1CC[C@H]2[C@@H]3[C@H](O)C[C@@H]4C[C@H](O)CC[C@]4(C)[C@H]3CC[C@]12C` [Chenodeoxycholic acid], which “reduction in cell viability” value is on record?
Answer: < 0%

Question: How did the “reduction in cell viability” value turn out when `CN(C)[C@@H]1C(O)=C(C(N)=O)C(=O)[C@@]2(O)C(O)=C3C(=O)c4c(O)cccc4[C@@](C)(O)[C@H]3C[C@@H]12` [Tetracycline hydrochloride] was run?
Answer: < 0%
